According to the supplement of paper PMC10849652:
This is one part of the list.

Amino acid sequences for entries named in this document (tags omitted). A change or cut given only in a name is not applied to a line headed by its entry.
UniProt Q15172: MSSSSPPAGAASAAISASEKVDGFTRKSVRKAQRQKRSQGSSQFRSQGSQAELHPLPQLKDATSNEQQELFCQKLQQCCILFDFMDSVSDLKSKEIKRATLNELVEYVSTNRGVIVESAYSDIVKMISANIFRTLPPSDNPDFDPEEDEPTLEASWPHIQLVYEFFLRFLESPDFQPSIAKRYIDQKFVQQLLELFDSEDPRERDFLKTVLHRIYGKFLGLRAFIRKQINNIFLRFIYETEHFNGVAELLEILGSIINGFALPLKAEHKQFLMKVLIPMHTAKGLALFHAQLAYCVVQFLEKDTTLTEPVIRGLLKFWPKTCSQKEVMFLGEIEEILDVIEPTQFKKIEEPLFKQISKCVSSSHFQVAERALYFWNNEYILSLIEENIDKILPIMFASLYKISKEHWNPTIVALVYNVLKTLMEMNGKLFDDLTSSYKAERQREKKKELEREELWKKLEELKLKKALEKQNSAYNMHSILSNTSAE
UniProt Q5VTL8: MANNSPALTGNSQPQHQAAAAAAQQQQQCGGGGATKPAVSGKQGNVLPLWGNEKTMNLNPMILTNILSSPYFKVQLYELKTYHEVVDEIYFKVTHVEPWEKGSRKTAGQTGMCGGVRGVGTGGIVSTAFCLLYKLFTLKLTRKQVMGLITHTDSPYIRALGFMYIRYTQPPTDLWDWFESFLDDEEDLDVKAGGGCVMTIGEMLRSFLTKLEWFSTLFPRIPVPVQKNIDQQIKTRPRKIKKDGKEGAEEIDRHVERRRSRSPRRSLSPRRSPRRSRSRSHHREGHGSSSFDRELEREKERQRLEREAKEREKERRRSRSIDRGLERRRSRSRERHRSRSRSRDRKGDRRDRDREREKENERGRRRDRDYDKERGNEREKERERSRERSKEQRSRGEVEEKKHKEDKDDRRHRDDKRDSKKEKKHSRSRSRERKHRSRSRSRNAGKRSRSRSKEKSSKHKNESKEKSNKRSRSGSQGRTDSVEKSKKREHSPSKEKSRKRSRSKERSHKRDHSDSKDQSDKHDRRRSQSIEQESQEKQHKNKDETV
UniProt P62136, whole entry, looked up: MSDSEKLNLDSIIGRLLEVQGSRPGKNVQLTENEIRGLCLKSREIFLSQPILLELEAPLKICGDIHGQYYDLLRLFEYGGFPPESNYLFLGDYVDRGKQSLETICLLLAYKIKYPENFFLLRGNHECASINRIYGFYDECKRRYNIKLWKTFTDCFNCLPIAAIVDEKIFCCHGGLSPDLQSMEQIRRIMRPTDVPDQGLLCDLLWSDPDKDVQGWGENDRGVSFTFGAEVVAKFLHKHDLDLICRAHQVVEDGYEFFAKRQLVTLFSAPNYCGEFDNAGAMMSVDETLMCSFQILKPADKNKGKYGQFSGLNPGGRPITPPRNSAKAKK
UniProt Q8WWY3: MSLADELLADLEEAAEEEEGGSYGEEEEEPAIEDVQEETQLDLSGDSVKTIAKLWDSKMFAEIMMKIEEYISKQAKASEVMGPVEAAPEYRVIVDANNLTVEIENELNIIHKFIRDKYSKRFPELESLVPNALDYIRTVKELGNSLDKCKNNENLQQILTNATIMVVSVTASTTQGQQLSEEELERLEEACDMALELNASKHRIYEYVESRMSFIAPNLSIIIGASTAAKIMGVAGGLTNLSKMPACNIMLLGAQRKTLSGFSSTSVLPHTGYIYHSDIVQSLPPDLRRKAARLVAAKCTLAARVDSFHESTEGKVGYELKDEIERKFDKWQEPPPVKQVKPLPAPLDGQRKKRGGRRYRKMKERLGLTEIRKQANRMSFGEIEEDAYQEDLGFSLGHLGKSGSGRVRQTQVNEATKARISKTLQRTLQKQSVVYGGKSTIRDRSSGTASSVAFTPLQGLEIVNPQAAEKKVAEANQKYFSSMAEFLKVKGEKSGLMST
UniProt Q13131: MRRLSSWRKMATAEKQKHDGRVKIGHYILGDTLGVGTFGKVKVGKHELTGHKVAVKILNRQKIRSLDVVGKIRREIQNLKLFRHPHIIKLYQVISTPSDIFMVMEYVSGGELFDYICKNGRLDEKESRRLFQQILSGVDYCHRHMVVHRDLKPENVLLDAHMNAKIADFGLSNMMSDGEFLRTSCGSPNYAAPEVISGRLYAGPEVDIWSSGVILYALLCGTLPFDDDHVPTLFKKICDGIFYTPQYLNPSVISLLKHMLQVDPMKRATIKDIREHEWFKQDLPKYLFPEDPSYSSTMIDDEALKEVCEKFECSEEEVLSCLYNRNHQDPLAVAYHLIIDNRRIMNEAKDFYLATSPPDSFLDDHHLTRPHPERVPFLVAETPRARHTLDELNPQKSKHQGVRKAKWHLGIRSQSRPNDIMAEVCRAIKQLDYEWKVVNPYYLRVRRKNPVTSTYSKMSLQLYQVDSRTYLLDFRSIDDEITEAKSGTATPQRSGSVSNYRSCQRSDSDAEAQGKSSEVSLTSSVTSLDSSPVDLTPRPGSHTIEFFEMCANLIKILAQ
UniProt P32119: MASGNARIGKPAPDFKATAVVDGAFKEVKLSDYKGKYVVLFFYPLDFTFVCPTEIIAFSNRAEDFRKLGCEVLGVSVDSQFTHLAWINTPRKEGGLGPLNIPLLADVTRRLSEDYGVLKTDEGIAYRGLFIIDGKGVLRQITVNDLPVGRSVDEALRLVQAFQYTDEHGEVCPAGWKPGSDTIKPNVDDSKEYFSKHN
UniProt Q99633: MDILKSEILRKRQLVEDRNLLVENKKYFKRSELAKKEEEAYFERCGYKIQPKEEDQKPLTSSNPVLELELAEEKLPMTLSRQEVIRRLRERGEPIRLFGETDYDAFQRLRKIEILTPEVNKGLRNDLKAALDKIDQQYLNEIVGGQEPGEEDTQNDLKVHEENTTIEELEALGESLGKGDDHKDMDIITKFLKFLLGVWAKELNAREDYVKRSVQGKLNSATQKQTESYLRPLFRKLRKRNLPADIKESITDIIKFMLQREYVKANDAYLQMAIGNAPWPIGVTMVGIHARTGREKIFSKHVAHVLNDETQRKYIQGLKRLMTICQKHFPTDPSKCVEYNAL
UniProt O75569: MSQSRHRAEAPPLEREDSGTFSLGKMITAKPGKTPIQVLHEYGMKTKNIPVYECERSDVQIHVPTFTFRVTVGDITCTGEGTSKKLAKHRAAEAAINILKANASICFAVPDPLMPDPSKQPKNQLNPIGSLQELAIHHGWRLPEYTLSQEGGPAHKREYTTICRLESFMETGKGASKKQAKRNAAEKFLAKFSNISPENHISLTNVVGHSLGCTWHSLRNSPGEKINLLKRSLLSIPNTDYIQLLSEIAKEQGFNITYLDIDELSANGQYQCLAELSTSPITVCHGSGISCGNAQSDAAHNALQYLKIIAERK
UniProt Q9UNN8: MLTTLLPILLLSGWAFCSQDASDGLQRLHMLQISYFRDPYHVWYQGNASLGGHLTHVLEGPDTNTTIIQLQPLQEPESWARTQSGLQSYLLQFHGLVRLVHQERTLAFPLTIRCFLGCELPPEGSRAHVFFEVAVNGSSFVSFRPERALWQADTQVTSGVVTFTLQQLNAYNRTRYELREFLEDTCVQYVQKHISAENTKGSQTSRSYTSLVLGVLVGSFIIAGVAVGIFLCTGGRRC
UniProt Q9H875: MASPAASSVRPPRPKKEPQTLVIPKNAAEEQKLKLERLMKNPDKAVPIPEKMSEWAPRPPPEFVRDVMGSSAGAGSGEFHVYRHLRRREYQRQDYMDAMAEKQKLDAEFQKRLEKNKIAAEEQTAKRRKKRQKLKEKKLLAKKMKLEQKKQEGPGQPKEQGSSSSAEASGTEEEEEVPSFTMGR
UniProt Q9NVM4: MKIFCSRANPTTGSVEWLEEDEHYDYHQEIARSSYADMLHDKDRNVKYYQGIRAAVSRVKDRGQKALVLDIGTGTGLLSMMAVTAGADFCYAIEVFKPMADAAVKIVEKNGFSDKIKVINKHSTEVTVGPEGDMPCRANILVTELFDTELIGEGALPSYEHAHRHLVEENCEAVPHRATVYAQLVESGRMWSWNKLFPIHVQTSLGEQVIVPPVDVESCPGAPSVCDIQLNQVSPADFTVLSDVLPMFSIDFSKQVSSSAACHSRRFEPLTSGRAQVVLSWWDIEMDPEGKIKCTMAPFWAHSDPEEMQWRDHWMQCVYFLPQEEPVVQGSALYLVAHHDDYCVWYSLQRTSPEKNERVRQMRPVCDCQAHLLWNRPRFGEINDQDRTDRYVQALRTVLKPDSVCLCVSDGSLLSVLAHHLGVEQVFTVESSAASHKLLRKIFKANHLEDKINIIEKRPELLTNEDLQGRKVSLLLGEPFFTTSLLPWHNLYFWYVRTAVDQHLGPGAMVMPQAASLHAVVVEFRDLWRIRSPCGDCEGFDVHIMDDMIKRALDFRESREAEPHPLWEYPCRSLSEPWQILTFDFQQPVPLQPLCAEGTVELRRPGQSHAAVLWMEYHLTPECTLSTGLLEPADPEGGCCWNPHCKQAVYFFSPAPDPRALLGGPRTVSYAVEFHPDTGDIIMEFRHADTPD
UniProt Q9NY27: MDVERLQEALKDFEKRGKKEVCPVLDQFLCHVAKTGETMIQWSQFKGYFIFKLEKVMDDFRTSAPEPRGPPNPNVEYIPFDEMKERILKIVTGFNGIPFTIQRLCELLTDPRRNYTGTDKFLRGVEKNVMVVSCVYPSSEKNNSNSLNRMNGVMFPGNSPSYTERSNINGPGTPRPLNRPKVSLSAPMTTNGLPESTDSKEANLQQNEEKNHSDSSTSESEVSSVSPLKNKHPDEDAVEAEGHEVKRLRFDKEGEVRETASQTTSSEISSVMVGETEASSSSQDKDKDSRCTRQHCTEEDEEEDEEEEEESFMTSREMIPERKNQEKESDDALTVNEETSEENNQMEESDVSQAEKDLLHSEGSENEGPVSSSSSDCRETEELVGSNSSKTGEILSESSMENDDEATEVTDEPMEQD
UniProt P30041: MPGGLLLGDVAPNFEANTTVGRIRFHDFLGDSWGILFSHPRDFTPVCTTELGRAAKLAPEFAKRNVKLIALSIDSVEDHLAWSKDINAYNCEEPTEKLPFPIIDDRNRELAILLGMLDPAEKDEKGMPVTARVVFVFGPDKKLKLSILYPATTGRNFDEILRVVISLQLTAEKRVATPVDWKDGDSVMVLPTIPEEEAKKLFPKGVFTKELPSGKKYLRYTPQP
UniProt Q9ULJ8: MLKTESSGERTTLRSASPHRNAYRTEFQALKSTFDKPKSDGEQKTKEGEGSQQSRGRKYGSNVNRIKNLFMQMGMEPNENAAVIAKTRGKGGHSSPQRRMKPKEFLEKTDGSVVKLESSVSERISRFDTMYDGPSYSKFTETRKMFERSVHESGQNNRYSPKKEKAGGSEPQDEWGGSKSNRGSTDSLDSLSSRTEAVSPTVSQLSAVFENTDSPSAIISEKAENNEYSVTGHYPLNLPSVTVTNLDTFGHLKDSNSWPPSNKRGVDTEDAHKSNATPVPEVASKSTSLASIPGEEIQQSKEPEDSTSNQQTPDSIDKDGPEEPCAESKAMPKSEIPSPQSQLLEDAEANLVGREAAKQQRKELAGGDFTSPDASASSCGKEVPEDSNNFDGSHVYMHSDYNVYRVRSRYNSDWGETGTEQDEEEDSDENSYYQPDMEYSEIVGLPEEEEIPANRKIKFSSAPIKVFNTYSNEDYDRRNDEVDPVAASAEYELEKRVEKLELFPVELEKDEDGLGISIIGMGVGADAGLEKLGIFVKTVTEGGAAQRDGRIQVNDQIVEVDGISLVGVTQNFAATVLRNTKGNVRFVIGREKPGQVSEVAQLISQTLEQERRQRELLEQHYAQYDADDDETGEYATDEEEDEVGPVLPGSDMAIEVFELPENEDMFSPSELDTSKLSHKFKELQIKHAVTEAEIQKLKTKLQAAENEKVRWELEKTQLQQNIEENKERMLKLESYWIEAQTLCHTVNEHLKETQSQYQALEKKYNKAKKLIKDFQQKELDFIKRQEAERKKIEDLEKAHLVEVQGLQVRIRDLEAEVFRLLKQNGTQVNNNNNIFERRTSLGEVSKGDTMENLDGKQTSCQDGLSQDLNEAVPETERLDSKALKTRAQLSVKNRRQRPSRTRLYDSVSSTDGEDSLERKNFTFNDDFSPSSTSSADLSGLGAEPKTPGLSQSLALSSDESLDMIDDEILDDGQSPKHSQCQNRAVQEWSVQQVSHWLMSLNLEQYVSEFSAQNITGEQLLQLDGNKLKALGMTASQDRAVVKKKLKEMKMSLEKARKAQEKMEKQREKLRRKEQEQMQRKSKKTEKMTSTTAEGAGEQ
UniProt P41219, whole entry, looked up: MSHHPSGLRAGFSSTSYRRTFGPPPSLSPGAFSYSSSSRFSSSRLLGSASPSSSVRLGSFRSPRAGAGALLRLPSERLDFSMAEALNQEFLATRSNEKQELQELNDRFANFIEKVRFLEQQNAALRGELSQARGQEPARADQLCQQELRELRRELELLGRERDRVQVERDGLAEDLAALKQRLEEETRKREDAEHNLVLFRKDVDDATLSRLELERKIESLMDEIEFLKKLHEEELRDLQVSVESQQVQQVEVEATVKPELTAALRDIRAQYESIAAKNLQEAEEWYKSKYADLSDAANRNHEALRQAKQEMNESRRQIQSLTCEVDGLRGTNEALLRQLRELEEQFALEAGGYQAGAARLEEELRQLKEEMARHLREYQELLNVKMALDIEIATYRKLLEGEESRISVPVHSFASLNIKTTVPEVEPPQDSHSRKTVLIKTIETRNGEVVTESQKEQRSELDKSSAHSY

Legend:
Assay in all cases: log2 fold change, soluble protein after heating vs DMSO (PISA); higher = thermal stabilisation; K562 cells, 10 uM, 30 min; active = over 0.2 and 3.5 SD of the protein, either way, in both replicates (recomputed)
[1] = compound: CC1=C(C=C(C=C1)NC(=O)C2=CC(=CC=C2)C(C)(C)C#N)NC3=CC4=C(C=C3)N=CN(C4=O)C
Procedure, shortened: (§1)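 Soluble protein was quantified by TMTpro 16plex LC-MS/MS after channel sums were equalised. It was obtained as the supernatant after 21,000xg for 90 min from pooled aliquots of K562 cells (2×10^6 cells/mL, 10 μM compound, 30 min) heated for 3 min across 48°C-58°C and extracted in PBS with 0.5% NP-40 at 4°C. Thermal stability values are relative to control samples and come from duplicates. They are given as log2 fold changes.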

[2] = compound: CC1=C(C=C(C=C1)NC(=O)C2=CC(=CC=C2)N(C)C)NC(=O)C3=CC=C(C=C3)O
Procedure, shortened: as §1

[3] = compound: CC1=CC=C(C=C1)SC2=C3C=C(SC3=CN=C2)C(=O)N
Procedure, shortened: as §1

[4] = compound: CC1=NC(=CC=C1)C2=C(N=C(N2)C(C)(C)C)C3=CC4=NC=CN=C4C=C3
Procedure, shortened: as §1

Nexturastat A = compound: CCCCN(Cc1ccc(C(=O)NO)cc1)C(=O)Nc1ccccc1 [Nexturastat A]
Procedure, shortened: as §1

vemurafenib = compound: CCCS(=O)(=O)Nc1ccc(F)c(C(=O)c2c[nH]c3ncc(-c4ccc(Cl)cc4)cc23)c1F [vemurafenib]
Procedure, shortened: as §1

[5] = compound: CCCS(=O)(=O)Nc1ccc(F)c(C(=O)c2c[nH]c3ncc(Cl)cc23)c1F
Procedure, shortened: as §1

[6] = compound: CCCc1cc(C)[nH]c(=O)c1CNC(=O)c1cc(-c2ccnc(N3CCN(C)CC3)c2)cc2c1cnn2C(C)C
Procedure, shortened: as §1

givinostat = compound: CCN(CC)Cc1ccc2cc(COC(=O)Nc3ccc(C(=O)NO)cc3)ccc2c1 [givinostat]
Procedure, shortened: as §1

barasertib = compound: CCN(CCCOc1ccc2c(Nc3cc(CC(=O)Nc4cccc(F)c4)[nH]n3)ncnc2c1)CCOP(=O)(O)O [barasertib]
Procedure, shortened: as §1

Measured: log2 fold change

PRKCA (UniProt P17252)
inactive: [1] -0.014 | [2] -0.068 | [3] -0.016 | [4] 0.007 | Nexturastat A 0.023 | vemurafenib -0.015 | [5] 0.012 | [6] -0.021 | givinostat -0.02 | barasertib 0.025

PPP2R5A (UniProt Q15172)
inactive: [1] -0.014 | [2] -0.039 | [3] 0.032 | [4] 0.051 | Nexturastat A -0.017 | vemurafenib 0.061 | [5] 0.146 | [6] -0.003 | givinostat 0.026 | barasertib 0.002

PRPF38B (UniProt Q5VTL8)
inactive: [1] -0.001 | [2] 0.001 | [3] -0.012 | [4] 0.015 | Nexturastat A -0.011 | vemurafenib 0.043 | [5] 0.042 | [6] -0.006 | givinostat 0.007 | barasertib 0.012

PPP1CA (UniProt P62136)
inactive: [1] -0.024 | [2] -0.019 | [3] -0.071 | [4] 0.164 | Nexturastat A -0.09 | vemurafenib -0.023 | [5] -0.05 | [6] 0 | givinostat -0.009 | barasertib 0.035

PRMT1 (UniProt Q99873)
inactive: [1] 0.057 | [2] -0.031 | [3] 0.014 | [4] 0.051 | Nexturastat A -0.073 | vemurafenib 0.013 | [5] 0.046 | [6] -0.083 | givinostat -0.031 | barasertib 0.002

PRPF31 (UniProt Q8WWY3)
inactive: [1] 0.021 | [2] -0.12 | [3] 0 | [4] 0.067 | Nexturastat A -0.01 | vemurafenib -0.017 | [5] 0.087 | [6] 0.106 | givinostat 0.065 | barasertib 0.096

PRKCD (UniProt Q05655)
inactive: [1] -0.015 | [2] -0.025 | [3] -0.012 | [4] -0.016 | Nexturastat A -0.032 | vemurafenib 0.015 | [5] 0.013 | [6] -0.045 | givinostat -0.021 | barasertib 0.023

PREB (UniProt Q9HCU5)
inactive: [1] 0.034 | [2] 0.01 | [3] -0.004 | [4] -0.007 | Nexturastat A -0.037 | vemurafenib -0.018 | [5] -0.02 | [6] 0.022 | givinostat -0.053 | barasertib -0.014

PRKD3 (UniProt O94806)
inactive: [1] 0.096 | [2] -0.052 | [4] -0.012 | vemurafenib 0.294 | [6] 0.115 | givinostat -0.008 | barasertib 0.086

PPP4R3B (UniProt Q5MIZ7)
inactive: [1] 0.006 | [2] 0.014 | [3] 0.008 | [4] 0.024 | Nexturastat A -0.063 | vemurafenib 0.017 | [5] 0.009 | [6] -0.017 | givinostat 0.049 | barasertib 0.029

PRRC2A (UniProt P48634)
inactive: [1] -0.021 | [2] -0.047 | [3] -0.035 | [4] -0.101 | Nexturastat A 0.18 | vemurafenib -0.084 | [5] -0.046 | [6] 0.053 | givinostat 0.032 | barasertib -0.074

PRKAR2B (UniProt P31323)
inactive: [1] 0.04 | [2] 0.017 | [3] 0.038 | [4] 0.022 | Nexturastat A 0.046 | vemurafenib 0.033 | [5] 0.052 | [6] -0.014 | givinostat 0 | barasertib 0.047

PRKAA1 isoform 2 (UniProt Q13131)
inactive: [1] -0.029 | [2] 0.001 | [3] -0.001 | [4] 0.02 | Nexturastat A -0.042 | vemurafenib 0.025 | [5] 0.008 | [6] 0.021 | givinostat -0.014 | barasertib 0.016

PRDX2 (UniProt P32119)
inactive: [1] 0.005 | [2] -0.01 | [3] 0.068 | [4] 0.022 | Nexturastat A -0.095 | vemurafenib -0.022 | [5] -0.024 | [6] -0.036 | givinostat -0.015 | barasertib 0.021

PRPF18 (UniProt Q99633)
inactive: [1] 0.035 | [3] -0.153 | [4] 0.056 | Nexturastat A 0.046 | vemurafenib 0.168 | [5] -0.121 | [6] -0.138 | givinostat -0.045 | barasertib 0.153

Pulled one by one from the entries so far, 3 records:
PRDX2 (UniProt P32119)
inactive: [1] 0.005 | [2] -0.01 | [3] 0.068 | [4] 0.022 | Nexturastat A -0.095 | vemurafenib -0.022 | [5] -0.024 | [6] -0.036 | givinostat -0.015 | barasertib 0.021

PRRC2A (UniProt P48634)
inactive: [1] -0.021 | [2] -0.047 | [3] -0.035 | [4] -0.101 | Nexturastat A 0.18 | vemurafenib -0.084 | [5] -0.046 | [6] 0.053 | givinostat 0.032 | barasertib -0.074

PRKAA1 isoform 2 (UniProt Q13131)
inactive: [1] -0.029 | [2] 0.001 | [3] -0.001 | [4] 0.02 | Nexturastat A -0.042 | vemurafenib 0.025 | [5] 0.008 | [6] 0.021 | givinostat -0.014 | barasertib 0.016

Later entries

PPP2CA (UniProt P67775)
inactive: [1] -0.021 | [2] 0.132 | [3] 0.012 | [4] 0.017 | Nexturastat A -0.025 | vemurafenib 0.053 | [5] 0.003 | [6] 0.022 | givinostat -0.152 | barasertib -0.024

PRPF4 (UniProt O43172)
inactive: [1] -0.027 | [2] -0.049 | [3] -0.035 | [4] 0.022 | Nexturastat A 0.061 | vemurafenib -0.022 | [5] 0.043 | [6] 0.004 | givinostat 0.024 | barasertib 0.005

PPP3CA (UniProt Q08209)
inactive: [1] -0.002 | [2] 0.003 | [3] 0.052 | [4] 0.052 | vemurafenib -0.055 | [5] 0.019 | [6] 0.045 | givinostat -0.007 | barasertib 0.056

PRKRA (UniProt O75569)
inactive: [1] 0.091 | [2] 0.039 | [3] -0.031 | [4] -0.263 | Nexturastat A 0.363 | vemurafenib -0.147 | [5] 0.07 | [6] 0.124 | barasertib -0.067

PROCR (UniProt Q9UNN8)
inactive: [1] -0.089 | [3] -0.05 | [4] 0.115 | Nexturastat A -0.23 | vemurafenib 0 | [5] -0.074 | givinostat 0.096 | barasertib -0.03

PRKRIP1 (UniProt Q9H875)
inactive: [1] 0.022 | [2] 0.023 | [3] 0.015 | [4] 0.011 | Nexturastat A -0.031 | vemurafenib -0.042 | [5] -0.026 | [6] -0.123 | givinostat -0.077 | barasertib -0.033

PPM1F (UniProt P49593)
inactive: [1] 0.023 | [2] -0.033 | [3] -0.036 | [4] 0 | Nexturastat A -0.07 | vemurafenib 0.025 | [5] -0.023 | [6] 0.027 | givinostat 0.011 | barasertib 0.06

PRMT7 (UniProt Q9NVM4)
inactive: [1] 0.056 | [2] -0.197 | [3] 0.065 | [4] -0.055 | Nexturastat A -0.003 | vemurafenib -0.03 | [5] 0.145 | [6] -0.014 | givinostat 0.042 | barasertib 0.023

PRSS2 (UniProt P07478)
inactive: [1] 0.034 | [3] -0.047 | [4] -0.001 | Nexturastat A 0.12 | vemurafenib -0.171 | [5] -0.054 | givinostat 0.079 | barasertib 0.009

PPP4R2 (UniProt Q9NY27)
inactive: [1] -0.041 | [2] -0.006 | [3] -0.046 | [4] -0.029 | Nexturastat A -0.065 | vemurafenib 0.008 | [5] 0.043 | [6] 0.048 | givinostat 0.034 | barasertib 0.026

PRKCE (UniProt Q02156)
inactive: [1] 0.041 | [3] -0.012 | [4] 0.048 | Nexturastat A -0.242 | vemurafenib 0.077 | [5] 0.085 | [6] -0.02 | barasertib 0.013
active: givinostat -0.393

PPOX (UniProt P50336)
inactive: [1] 0.402 | [2] -0.014 | [3] 0.043 | [4] 0.099 | Nexturastat A -0.232 | vemurafenib 0.065 | [5] 0.046 | [6] 0.184 | givinostat -0.063 | barasertib 0

PPP1R12C (UniProt Q9BZL4)
inactive: [1] -0.048 | [2] 0.027 | [3] 0.124 | Nexturastat A 0.154 | vemurafenib -0.023 | [5] 0.265 | [6] 0.04 | givinostat 0.089 | barasertib 0.112

PRDX6 (UniProt P30041)
inactive: [1] 0 | [2] -0.002 | [3] 0.036 | [4] 0.038 | Nexturastat A -0.151 | vemurafenib 0.018 | [5] -0.015 | [6] -0.005 | givinostat -0.021 | barasertib 0.019

PPP1R9A isoform 3 (UniProt Q9ULJ8)
inactive: [1] 0.056 | [2] 0.092 | [4] -0.196 | Nexturastat A 0.114 | vemurafenib 0.287 | [6] 0.096 | barasertib -0.109

PRPH isoform 2 (UniProt P41219)
inactive: [1] -0.076 | [2] 0.033 | [3] -0.052 | [4] -0.278 | vemurafenib -0.082 | [5] -0.01 | [6] 0.053 | givinostat 0.045 | barasertib -0.035
